Source: PubChem BioAssay AID1224829 (NIAID, 2016)
Purpose: 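Follow-up of TLR4-NF-kappaB regulators using six separate siRNAs for each gene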 (follow-up of hits). Cell system: mouse RAW264.7 G9 macrophage reporter cells. Knock-down reagent: single siRNA against mouse genes, 100 nM. Time to read-out: 2 days of siRNA knock-down, then 40 min of LPS before fixing. Treatment: LPS (Salmonella minnesota R595) at 10 ng/ml. Measurement: 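Imaging of GFP-p65 after 40 min of LPS; nuclear over perinuclear ring intensity ratio, scaled to plate median and non-targeting control wells, given as z-score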. Reading the numbers: p65 translocation z-score and gene median z-score, per vendor: higher = more nuclear NF-kappaB p65 after LPS. Rule for the call: 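An siRNA is called active when the mean z-score of its two replicates is above 2 or below -2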. Calls: active = changed p65 translocation (either direction); inactive = no clear change.
Here is an unselected part of about 3,800 reagents. 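Calls cover raised and lowered translocation; gene median uses one vendor's three siRNAs; qiagen siRNAs acted more weakly than ambion siRNAs.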 The numbers tell different reagents against one gene apart. No sequences are given here.

| gene | reagent | siRNA vendor or control pool | p65 translocation z-score, replicate mean | p65 translocation z-score, replicate 1 | p65 translocation z-score, replicate 2 | gene median z-score, per vendor | activity call |
| --- | --- | --- | --- | --- | --- | --- | --- |
| Ptpn13 | 1 | ambion single siRNA | 6.58 | 9.41 | 3.74 | -2.81 | active |
| Ptpn13 | 2 | ambion single siRNA | -3.21 | -3.06 | -3.36 | -2.81 | active |
| Ptpn13 | 3 | ambion single siRNA | -3.44 | -4.33 | -2.55 | -2.81 | active |
| Ptpn13 | 4 | qiagen single siRNA | 0.175 | 0.502 | -0.152 | 0.0397 | inactive |
| Ptpn13 | 5 | qiagen single siRNA | 0.79 | 0.232 | 1.35 | 0.0397 | inactive |
| Ptpn13 | 6 | qiagen single siRNA | -2.43 | -1.39 | -3.47 | 0.0397 | active |
| Or4x6 | 1 | ambion single siRNA | 0.712 | 1.24 | 0.183 | -0.712 | inactive |
| Or4x6 | 2 | ambion single siRNA | – | – | – | -0.712 | inactive |
| Or4x6 | 3 | ambion single siRNA | -2.68 | -3.75 | -1.61 | -0.712 | active |
| Or4x6 | 4 | qiagen single siRNA | 2.51 | 3.05 | 1.98 | -0.384 | active |
| Or4x6 | 5 | qiagen single siRNA | -0.384 | -0.0469 | -0.72 | -0.384 | inactive |
| Or4x6 | 6 | qiagen single siRNA | -5.87 | -2.15 | -9.59 | -0.384 | active |
| Ppm1a | 1 | ambion single siRNA | -1.69 | -2.25 | -1.12 | -1.17 | inactive |
| Ppm1a | 2 | ambion single siRNA | -0.966 | -0.71 | -1.22 | -1.17 | inactive |
| Ppm1a | 3 | ambion single siRNA | -1.82 | 1.15 | -4.79 | -1.17 | inactive |
| Ppm1a | 4 | qiagen single siRNA | 1.45 | 1.97 | 0.925 | -1.27 | inactive |
| Ppm1a | 5 | qiagen single siRNA | -1.27 | -1.35 | -1.19 | -1.27 | inactive |
| Ppm1a | 6 | qiagen single siRNA | -2.83 | -1.63 | -4.04 | -1.27 | active |
| Bpifb9a | 1 | qiagen single siRNA | 3.05 | 2.84 | 3.25 | -1.89 | active |
| Bpifb9a | 2 | qiagen single siRNA | -3.38 | -4.04 | -2.71 | -1.89 | active |
| Bpifb9a | 3 | qiagen single siRNA | -2.64 | -1.08 | -4.2 | -1.89 | active |
| Tsg101 | 1 | ambion single siRNA | 3.66 | 4.13 | 3.19 | -1.44 | active |
| Tsg101 | 2 | ambion single siRNA | -1.44 | -1.11 | -1.76 | -1.44 | inactive |
| Tsg101 | 3 | ambion single siRNA | -2.04 | -1.88 | -2.21 | -1.44 | active |
| Tsg101 | 4 | qiagen single siRNA | 1.59 | 1.76 | 1.41 | 0.354 | inactive |
| Tsg101 | 5 | qiagen single siRNA | 0.354 | 0.0928 | 0.614 | 0.354 | inactive |
| Tsg101 | 6 | qiagen single siRNA | -1.16 | -1.18 | -1.14 | 0.354 | inactive |
| Nagpa | 1 | ambion single siRNA | -0.305 | 0.0106 | -0.62 | -0.305 | inactive |
| Nagpa | 2 | ambion single siRNA | -2.7 | -2.83 | -2.57 | -0.305 | active |
| Nagpa | 3 | ambion single siRNA | 1.39 | 1.53 | 1.24 | -0.305 | inactive |
| Nagpa | 4 | qiagen single siRNA | 1.36 | 0.352 | 2.36 | -0.665 | inactive |
| Nagpa | 5 | qiagen single siRNA | -0.665 | -0.717 | -0.612 | -0.665 | inactive |
| Nagpa | 6 | qiagen single siRNA | -5.07 | -3.19 | -6.95 | -0.665 | active |
| Pdk3 | 1 | ambion single siRNA | 4.04 | 4.06 | 4.02 | -2.11 | active |
| Pdk3 | 2 | ambion single siRNA | -2.75 | -2.16 | -3.34 | -2.11 | active |
| Pdk3 | 3 | ambion single siRNA | -2.43 | -2.79 | -2.06 | -2.11 | active |
| Pdk3 | 4 | qiagen single siRNA | -1.38 | -1.67 | -1.08 | -1.24 | inactive |
| Pdk3 | 5 | qiagen single siRNA | -0.512 | -1.4 | 0.37 | -1.24 | inactive |
| Pdk3 | 6 | qiagen single siRNA | -0.85 | -0.214 | -1.49 | -1.24 | inactive |
| Cks1b | 1 | ambion single siRNA | -0.0618 | -0.0849 | -0.0386 | -0.884 | inactive |
| Cks1b | 2 | ambion single siRNA | – | – | – | -0.884 | inactive |
| Cks1b | 3 | ambion single siRNA | -1.83 | -1.68 | -1.98 | -0.884 | inactive |
| Cks1b | 4 | qiagen single siRNA | 1.98 | 1.55 | 2.41 | 0.174 | inactive |
| Cks1b | 5 | qiagen single siRNA | -0.352 | 0.174 | -0.877 | 0.174 | inactive |
| Cks1b | 6 | qiagen single siRNA | -3.29 | -3.29 | – | 0.174 | active |
| Inpp5b | 1 | ambion single siRNA | -2.66 | -3.39 | -1.92 | -1.07 | active |
| Inpp5b | 2 | ambion single siRNA | -1.66 | -0.225 | -3.09 | -1.07 | inactive |
| Inpp5b | 3 | ambion single siRNA | 0.699 | 0.367 | 1.03 | -1.07 | inactive |
| Inpp5b | 4 | qiagen single siRNA | 0.697 | 0.225 | 1.17 | -0.493 | inactive |
| Inpp5b | 5 | qiagen single siRNA | -0.493 | 0.0408 | -1.03 | -0.493 | inactive |
| Inpp5b | 6 | qiagen single siRNA | -2.06 | -1.95 | -2.16 | -0.493 | active |
| Slc25a28 | 1 | ambion single siRNA | 1.58 | 1.9 | 1.26 | -1.09 | inactive |
| Slc25a28 | 2 | ambion single siRNA | -1.41 | -1.18 | -1.64 | -1.09 | inactive |
| Slc25a28 | 3 | ambion single siRNA | -3.18 | -0.997 | -5.36 | -1.09 | active |
| Slc25a28 | 4 | qiagen single siRNA | 1.84 | 0.225 | 3.46 | -0.327 | inactive |
| Slc25a28 | 5 | qiagen single siRNA | -1.5 | -0.879 | -2.12 | -0.327 | inactive |
| Slc25a28 | 6 | qiagen single siRNA | -1.09 | -2.66 | 0.474 | -0.327 | inactive |
| Cacna1d | 1 | ambion single siRNA | -0.505 | 1.7 | -2.71 | -2.09 | inactive |
| Cacna1d | 2 | ambion single siRNA | -3.87 | -3.9 | -3.84 | -2.09 | active |
| Cacna1d | 3 | ambion single siRNA | 0.381 | 2.23 | -1.47 | -2.09 | inactive |
| Cacna1d | 4 | qiagen single siRNA | 0.899 | 0.197 | 1.6 | 0.0407 | inactive |
| Cacna1d | 5 | qiagen single siRNA | -1.75 | -1.75 | – | 0.0407 | inactive |
| Cacna1d | 6 | qiagen single siRNA | -0.0883 | 0.0407 | -0.217 | 0.0407 | inactive |
| Akr1b7 | 1 | ambion single siRNA | 0.688 | 0.988 | 0.388 | -0.0327 | inactive |
| Akr1b7 | 2 | ambion single siRNA | 0.319 | 1.09 | -0.454 | -0.0327 | inactive |
| Akr1b7 | 3 | ambion single siRNA | -2.42 | -2.68 | -2.15 | -0.0327 | active |
| Akr1b7 | 4 | qiagen single siRNA | -0.0201 | -0.149 | 0.109 | -0.26 | inactive |
| Akr1b7 | 5 | qiagen single siRNA | 0.0621 | -0.371 | 0.495 | -0.26 | inactive |
| Akr1b7 | 6 | qiagen single siRNA | -2.42 | -1.55 | -3.29 | -0.26 | active |

Just “gene median z-score, per vendor”, for 9 of the entries above:
Pdk3 #3, siRNA vendor or control pool ambion single siRNA	-2.11
Pdk3 #4, siRNA vendor or control pool qiagen single siRNA	-1.24
Pdk3 #5, siRNA vendor or control pool qiagen single siRNA	-1.24
Pdk3 #6, siRNA vendor or control pool qiagen single siRNA	-1.24
Cks1b #1, siRNA vendor or control pool ambion single siRNA	-0.884
Cks1b #2, siRNA vendor or control pool ambion single siRNA	-0.884
Cks1b #3, siRNA vendor or control pool ambion single siRNA	-0.884
Cks1b #4, siRNA vendor or control pool qiagen single siRNA	0.174
Cks1b #5, siRNA vendor or control pool qiagen single siRNA	0.174
